Assay results as given in publication PMC6802093, “Structural characterization of HypX responsible for CO biosynthesis in the maturation of NiFe-hydrogenase” (Communications Biology, 2019).
Results are given in words; binding and its absence hold for the method and conditions named.

Molecular target: A. aeolicus HypD (Aquifex aeolicus) (UniProt O67225)
Assay: SEC; Superdex75 10/300GL, 50 mM Tris-HCl (pH 8.0), 200 mM NaCl, 1 mM DTT; HypC alone, HypD alone, and HypC and HypD mixed in equal molar amount; apparent masses; both purified

B1: A. aeolicus HypD (protein, UniProt O67225 1-380)
chain: MRVEEISIFEAYKDKERVLKLSEKIKKLSEKIGRTVNIMEFCGGHTHAIMKYGIDQLLKGVVRFIHGPGCPVCVMPMQRIDLAIELAKRKDVIMCSYGDLLRVPGSKRKSLLNVRAEGADVRMVYSCLDTLKIAKENPDKKVIFFAIGFETTTPQTAVLIKKAKEEGIKNLFVVSNHVITPAAIQHILNAPEIREIGKVEIDAFIGPGHVSVIIGTKPYHYFAEEFQKPVVIAGFEPLNVLKAVYLILKQIYKGRAEVKNNYTRFVTYKGNLKAQNLVAELFELRKEFEWRGLGTIPYSALKIRKEYEEFDAEKVFEVELPEPKEHPACICGKVIRGVARPTDCKLFGTVCTPSNPLGSCMVSSEGACAAYYKYRRALVQ
  binding: no binding
